Laboratory results: PubChem BioAssay AID2417 (National Center for Advancing Translational Sciences (NCATS), 2010)
About 4,300 (3.1%) of roughly 140,000 compounds were called active. This list was built around the results that the source calls inconclusive (neither active nor inactive); the mix of calls is not that of the screen.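 How the source made its calls: active means readout at or below -70, meaning at least 70% loss of cells showing the perinucleolar compartment, a nuclear body marking cancer cells; inconclusive means readout between -30 and a set limit; inactive means the rest.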

Assay: High Content Assay for Compounds that inhibit the Assembly of the Perinucleolar Compartment;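 further: plate controls were DMSO wells for no effect and camptothecin positive control wells for full effect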
Settings: PC3M PTB-GFP, PNC prevalence imaging, 16 h; at 10 µM; hits give low values
How it was run: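 Compounds are pinned in duplicate onto adhered PC3M cells stably expressing GFP-tagged PTB and incubated 16 h at 37 C. Cells are then fixed, nuclei stained with Hoechst, and PNC-positive cells counted.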

Row | SMILES | activity change (PNC), negative = inhibition
1 | CCOc1ccc(C(=O)N2CCc3cc(OC)c(OC)cc3C2)cc1OCC | inactive: 12.5%
2 | COC(=O)C1CCN(C(=O)N2CCOCC2)CC1 | inconclusive: -48.9%
3 | O=C(NCCCN1CCOCC1)c1ccc(Br)cc1 | inactive: -27.4%
4 | CN1CCN(c2oc(COc3ccc(-c4ccccc4)cc3)nc2C#N)CC1 | inconclusive: -44.8%
5 | CCSC(C)CC1C/C(=N/O)c2c(CC)noc2C1 (stereo not given) | active: -86%
6 | O=C1NN(c2ccccc2)C(=O)/C1=C/c1ccc(Sc2cccc3ccccc23)o1 | inactive: -19.9%
7 | Cc1csc2nc(CNC(=O)C3CCCCC3)cn12 | inactive: -26.5%
8 | COc1ccc(CCNC(=O)c2ccc(CNS(=O)(=O)c3ccc(C(C)(C)C)cc3)cc2)cc1OC | inconclusive: -50.8%
9 | c1ccc2c(-n3cnnn3)cccc2c1 | inactive: 27%
10 | Cc1cc(C)c(S(C)(=O)=O)c(Oc2ccc(F)cc2)n1 | inactive: 74.2%
11 | Cc1cc2occ(CC(=O)Nc3nnc(C4CC4)s3)c2cc1C | inactive: -12.6%
12 | O=C1N/C(=C/c2ccc(N3CCOCC3)o2)C(=O)N1c1ccccc1 | inconclusive: -30.2%
13 | COC(=O)C/C=C/[C@@H](C)[C@@H](/C=N/O[C@@H](C)c1cn([C@H](CO)Cc2ccccc2)nn1)NS(=O)(=O)c1ccc(C)cc1 | inactive: -20.3%
14 | CC1(C)CC(=O)/C(=C(\O)Cc2ccccc2)C(=NCCCCCC(=O)O)C1 | inconclusive: -30.7%
15 | Cc1nn2c(COc3ccc(NC(=O)c4ccccc4)cc3)nnc2c2ccccc12 | inconclusive: -45.8%
16 | CCn1cc(CNC(=O)/C=C/c2ccc([N+](=O)[O-])cc2)cn1 | inconclusive: -75.8%
17 | CCOC(=O)Cn1nc(Cc2ccccc2)c2ccccc2c1=O | inconclusive: -42.9%
18 | O=C1CC(=C2c3ccccc3-c3ccccc32)C(=O)N1CCCCN1CCN(c2ccccc2)CC1 | inactive: 41.9%
19 | O=C(CN1CCN(Cc2ccc(F)cc2)C1=O)NCc1cccs1 | inconclusive: -61%
20 | Cc1c(C(=O)OCC(=O)N2CC(=O)Nc3ccccc32)oc2ccccc12 | inconclusive: -72.8%
21 | CCCc1[nH]n(-c2ccc(F)cc2)c(=O)c1C=Nc1ccc(C)cc1 | inactive: 34.4%
22 | O=C(c1sc2cc(F)ccc2c1Cl)N1CCN(c2ccccc2)CC1 | inconclusive: -70.8%
23 | CC(=O)NC(C)C(=O)OCC(=O)c1ccc(Cl)s1 (stereo not given) | inconclusive: -30%

Row | SMILES | activity change (PNC), negative = inhibition
24 | COc1ccc(NC(=O)NCCN2C(=O)C3C4C=CC(C4)C3C2=O)cc1 (stereo not given) | active: -82%
25 | Cc1ccc(NC(=S)NNC(=O)c2ccco2)cc1 | inconclusive: -38.4%
26 | O=C1C(Cl)=C(NCC2CCCO2)C(=O)N1C1CCCCC1 (stereo not given) | inactive: 58.7%
27 | Cc1ccc2c(c1)c1c(n2CC(O)Cn2nc(C)c(Br)c2C)C(=O)CCC1 (stereo not given) | inconclusive: -38.2%
28 | O=S(=O)(/N=S1/CC=CCN1S(=O)(=O)c1ccccc1)c1ccccc1 (stereo not given) | inconclusive: -76.4%
29 | C=CCNC(=O)c1ccccc1NC(=O)c1ccc(Cl)c(S(=O)(=O)Nc2cccc(C)c2C)c1 | inactive: -8.83%
30 | COc1ccc(OC)c(N=C2C(=O)Nc3ccccc32)c1 | inactive: 72.8%
31 | O=C(Nc1ccc(Nc2ccccc2)cc1)C(Cl)Cl | active: -90.8%
32 | CC(=O)/C=C/c1ccc2ccccc2n1 | inactive: 96.2%
33 | Cc1nn(Cc2ccc(Cl)cc2Cl)c(C)c1NC(=O)c1nc2n(n1)C(C(F)F)CC(C)N2 (stereo not given) | inconclusive: -54.9%
34 | O=C(Cn1cccc1)Nc1ccc(F)cc1F | inconclusive: -33.4%
35 | CCCc1nc2ccccc2c(C(=O)OC(C)C(=O)NCc2ccc3c(c2)OCO3)c1CC (stereo not given) | inconclusive: -57.9%
36 | CCOC(=O)NC(=O)C(=CNc1cccc(C)c1)C(=O)NC(=O)OCC | inactive: 49.6%
37 | N#CC1=C(N)NC(SCc2ccccc2)=C(C#N)C12CCCC2 | active: -113%
38 | Cc1ccc(S(=O)(=O)Nc2cc(C(=O)NCCN(C)C)ccc2N2CCCCC2)cc1 | inactive: 56.3%
39 | COc1ccc2c(c1)CC/C2=N\NC(=O)c1ccccc1 | inconclusive: -38.1%
40 | CCOP(=O)(OCC)C(Nc1ccccn1)c1ccc(F)cc1 (stereo not given) | inconclusive: -46%
41 | COCCCn1c(-c2ccc(S(=O)(=O)N3CCOCC3)cc2)csc1=Nc1ccccc1 | inactive: 5.22%
42 | O=C(c1ccccc1)N1CCN(CC(O)COC2CCCCC2)CC1 (stereo not given) | inconclusive: -56.7%
43 | Nc1nnnn1/N=C/C(Br)=C/c1ccccc1 | inconclusive: -31.3%
44 | CCN(CC)S(=O)(=O)c1ccc(Oc2ccc(S(=O)(=O)N(CC)CC)cc2)cc1 | inconclusive: -33.3%
45 | CCOC(=O)C1=C(C)N(CC)C(=S)NC1c1ccc(Cl)cc1 (stereo not given) | inconclusive: -55.9%
46 | Cc1cccc(Nc2nnc(SCC3CCCCO3)s2)c1C (stereo not given) | inconclusive: -45.1%

An excerpt of these results, tab-delimited:
Row	SMILES	activity change (PNC), negative = inhibition
33	Cc1nn(Cc2ccc(Cl)cc2Cl)c(C)c1NC(=O)c1nc2n(n1)C(C(F)F)CC(C)N2 (stereo not given)	inconclusive: -54.9%
34	O=C(Cn1cccc1)Nc1ccc(F)cc1F	inconclusive: -33.4%
35	CCCc1nc2ccccc2c(C(=O)OC(C)C(=O)NCc2ccc3c(c2)OCO3)c1CC (stereo not given)	inconclusive: -57.9%
36	CCOC(=O)NC(=O)C(=CNc1cccc(C)c1)C(=O)NC(=O)OCC	inactive: 49.6%

The list goes on:

Row | SMILES | activity change (PNC), negative = inhibition
47 | CC(=O)N1CCN(c2ccc(S(=O)(=O)NCCN(C(C)C)C(C)C)cc2[N+](=O)[O-])CC1 | active: -105%
48 | O=C(CNC(=O)c1ccc(Oc2ccccc2)cc1)OC1CCCCC1=O (stereo not given) | inactive: 1.86%
49 | Cc1ccc(/C=C/C(=O)Nc2ccc(Oc3ccccc3)cc2)o1 | inactive: 30.9%
50 | Cc1ccc(C)c2c1cc(C)c1nnc(SCC(=O)NCc3ccc4c(c3)OCO4)n12 | inconclusive: -41%
51 | COc1cc(/C=N/OCC(=O)NC2CCCCC2)ccc1OCc1ccccc1 | inconclusive: -57.3%
52 | CCN(CC)S(=O)(=O)c1cccc(NC(=O)C2SC(=Nc3ccc(C)cc3C)C(C(=O)NCC3CCCO3)=C2N)c1 (stereo not given) | inconclusive: -52.3%
53 | COc1ccc(OC)c(-c2cc(C(=O)Nc3c(C)nn(Cc4ccccc4C)c3C)no2)c1 | inconclusive: -50.8%
54 | Cc1nc2c(c(-c3ccccc3)c1C#N)C(=O)c1ccccc1-2 | inactive: 114%
55 | CCOC(=O)c1c(NC(=O)CNCC(O)CO)sc(C)c1C (stereo not given) | inactive: 35.4%
56 | O=C1NC(=Nc2ccccc2)S/C1=C\C=C\c1ccco1 | inconclusive: -39.2%
57 | C(=N\NC1=Nc2cccc3cccc1c23)/c1ccccc1 | inconclusive: -62.9%
58 | O=C(CN1C(=O)c2ccccc2S1(=O)=O)NCCSC1CCCCC1 | inconclusive: -50%
59 | N=c1oc2ccc3ccccc3c2cc1-c1nnc2n1CCCCC2 | active: -114%
60 | C#CCOCCOCCOCCNc1nc(N2CCOCC2)nc(N2CCN(C(=O)Cn3cc(CCCN=C(N)N)nn3)CC2)n1 | inconclusive: -56.5%
61 | Cc1ccc(C(=O)N2CCN(c3cccc(Cl)c3)CC2)cc1C | inconclusive: -30.1%
62 | CCCC(=O)Nc1ccc(Cl)c(NC(=O)c2cccnc2)c1 | inconclusive: -65.4%
63 | O=c1c(Cl)c(N2CCN(c3ccccc3)CC2)cnn1C12CC3CC(CC(C3)C1)C2 | inconclusive: -35.1%
64 | COc1cc(NC(=S)NCc2cccnc2)cc(OC)c1 | active: -92%
65 | COc1ccccc1NC(=O)c1c(Nc2ccccc2C)sc(C(=O)Nc2cccc(Cl)c2)c1N | inconclusive: -60.9%
66 | O=C(Nc1ccc(F)cc1)C1CCN(c2nnnn2-c2ccccc2)CC1 | inactive: -24.8%
67 | CC1CCCCN1C(=S)Nc1ccc(OC(F)F)cc1 (stereo not given) | inconclusive: -70.4%
68 | CNC(=O)[C@H](C)[C@@H]1C[C@@]1(C)[C@@H](NC(=O)OCc1ccccc1)c1ccccc1 | inactive: 18.9%
69 | Cc1nc(C)c(-c2nnc(-c3ccc(C(C)(C)C)cc3)o2)cc1C(=O)NN | inconclusive: -76.5%

Looked up by structure from above (three):
Row | SMILES | activity change (PNC), negative = inhibition
13 | COC(=O)C/C=C/[C@@H](C)[C@@H](/C=N/O[C@@H](C)c1cn([C@H](CO)Cc2ccccc2)nn1)NS(=O)(=O)c1ccc(C)cc1 | inactive: -20.3%
24 | COc1ccc(NC(=O)NCCN2C(=O)C3C4C=CC(C4)C3C2=O)cc1 (stereo not given) | active: -82%
43 | Nc1nnnn1/N=C/C(Br)=C/c1ccccc1 | inconclusive: -31.3%

Remaining list, next part

Row | SMILES | activity change (PNC), negative = inhibition
70 | C=CCc1cc(/C=C2/NC(=S)NC2=O)cc(OC)c1O | inactive: 11.9%
71 | Cc1ccc2nc(Cl)c(/C=N/NC(=O)[C@H]3C[C@@H]3c3ccccc3)cc2c1 | inconclusive: -40.6%
72 | COc1cccc(C(c2sc3nc(C)nn3c2O)N2CCC3(CC2)OCCO3)c1 (stereo not given) | inconclusive: -35.3%
73 | O=C(c1nc2ccccc2s1)N1CCSCC1 | inconclusive: -50.3%
74 | CC(C)(C)C(=O)Nc1nc(C2CCCN2S(=O)(=O)c2ccc(Cl)cc2)cs1 (stereo not given) | inactive: 12.8%
75 | O=C(c1cccc(C(F)(F)F)c1)N1CCCCCC1 | inactive: -5.83%
76 | CCCCOc1ccc(CONS(=O)(=O)c2ccc(NC(C)=O)cc2)cc1Cl | inactive: -1.64%
77 | O=C(Nc1ccc([N+](=O)[O-])cc1)c1cn(-c2ccccc2)nc1-c1cc2ccccc2o1 | inconclusive: -42.3%
78 | CCSCCOC(=O)C1=C(C)NC2=C(C(=O)CCC2)C1c1coc2ccccc2c1=O (stereo not given) | inconclusive: -70.1%
79 | COc1ccc(NC(=O)CNS(=O)(=O)c2cccc3nonc23)c(OC)c1 | inconclusive: -30%
80 | COc1cc(OC)c(C2C(C#N)=C(N)OC3=C2C(=O)CC(C)(C)C3)cc1OC (stereo not given) | inconclusive: -36.7%
81 | COC(=O)c1sc2ccccc2c1C(=O)OC | inconclusive: -49.3%
82 | C=CCn1c(C)cc(C2=NNC(=NC(C)(C)C)SC2)c1C | inconclusive: -64.9%
83 | COc1cc(CNCc2ccc(SC)cc2)cc(OC)c1 | inactive: -18%
84 | Cc1ccc(C=Nc2ccccc2C(N)=O)cc1 | active: -113%
85 | CC(=O)Nc1ccc(S(=O)(=O)Nc2nc3ccccc3nc2N2CCCC2)cc1 | inactive: -6.29%
86 | O=C(Nc1ccc(N2CCOCC2)c(Cl)c1)c1cccc(F)c1 | inconclusive: -31.6%
87 | Cc1nc2ncccn2c1-c1csc(Nc2ccccc2)n1 | inconclusive: -42.4%
88 | CSc1nc(C)cc(NC(N)=O)n1 | inactive: 21.4%
89 | C=CCOC(=O)C1=C(C)NC(SCC(=O)Nc2nccs2)=C(C#N)C1c1cccs1 (stereo not given) | inconclusive: -60.3%
90 | O=C(Nc1nccs1)C1CCN(S(=O)(=O)c2cccnc2)CC1 | inconclusive: -35.6%
